Consider 27 molecules from PubChem BioAssay AID330 (DTP/NCI, 2004).

This assay relates to P388 leukemia ip, CD2F1 mice, survival T/C. Kind of assay: NCI In Vivo Anticancer Drug Screen. Data for tumor model P388 Leukemia (intraperitoneal) in CD2F1 (CDF1) mice. To be noted: T/C endpoint: median survival time, higher T/C = longer survival.
Where [1] appears, read: dose: 50.0 mg/kg/injection, schedule: Q01DX005 (ip), vehicle: Klucel (hydroxypropylcellulose) (HPC).
[2] abbreviates: dose: 100.0 mg/kg/injection, schedule: Q01DX005 (ip), vehicle: Klucel (hydroxypropylcellulose) (HPC).
The mark [3] stands for this setting: dose: 200.0 mg/kg/injection, schedule: Q01DX005 (ip), vehicle: Klucel (hydroxypropylcellulose) (HPC).
The mark [4] stands for this setting: dose: 200.0 mg/kg/injection, schedule: Q01DX009 (ip), vehicle: saline with Tween-80.
The mark [5] stands for this setting: dose: 400.0 mg/kg/injection, schedule: Q04DX003 (ip), vehicle: saline.
[6] abbreviates: dose: 50.0 mg/kg/injection, schedule: Q01DX009 (ip), vehicle: saline.
[7] abbreviates: dose: 50.0 mg/kg/injection, schedule: Q01DX009 (ip), vehicle: Klucel (hydroxypropylcellulose) (HPC).
The mark [8] stands for this setting: dose: 100.0 mg/kg/injection, schedule: Q01DX009 (ip), vehicle: Klucel (hydroxypropylcellulose) (HPC).
[9] abbreviates: dose: 200.0 mg/kg/injection, schedule: Q01DX009 (ip), vehicle: Klucel (hydroxypropylcellulose) (HPC).
[10] abbreviates: dose: 100.0 mg/kg/injection, schedule: Q01DX009 (ip), vehicle: saline with Tween-80.
The mark [11] stands for this setting: dose: 256.0 mg/kg/injection, schedule: Q01DX009 (ip), vehicle: saline.
Setting [12] is: dose: 400.0 mg/kg/injection, schedule: Q04DX002 (ip), vehicle: saline.
The mark [13] stands for this setting: dose: 200.0 mg/kg/injection, schedule: Q04DX002 (ip), vehicle: Klucel (hydroxypropylcellulose) (HPC).
[14] abbreviates: dose: 200.0 mg/kg/injection, schedule: Q01DX005 (ip), vehicle: saline with Tween-80.

The list shows only some results of the screen, not a fair sample: it is rich in T/C values a quarter to a half above the control, in often repeated tests (any T/C) and in doses without a T/C. Other doses and runs of a compound stand elsewhere. T/C is the treated group as % of the vehicle group. Some entries give survivors of the animals treated and no T/C: the source holds a T/C of zero for them, seemingly a mark for toxic or unscored doses. Some doses without a T/C left all or most animals alive at the check, yet need not have been tolerated: the source hardly ever lists a survival T/C far under the control, and the zero likely stands for such cases as well. Survivors were counted at the toxicity check, usually on the fifth day, unless a day is given; later deaths do not show. Schedule codes are those of the source, read here as Q, the interval in days (D) or hours (H), X, the number of doses. Brackets with × give the number of equal values in this list. Where survival is the endpoint, this PubChem deposit counts one and a half times the control or more as active, and values a quarter to a half above the control carry no call in these data; other NCI protocols may use other cut-offs. Some T/C values carry the count of animals alive at the toxicity check (mostly the fifth day); where none is given, no animal had died by that day. Some doses were run more than once; the values are given in rising order.

For `CCCCCCCN(CCCCCCC)C(=N)c1ccnc2ccccc12`, the survivor count runs as follows: under setting [1], 0 of 5; under setting [2], 0 of 5; under setting [3], 0 of 5.
Take `Brc1ccc(C[N+]23CN4CN(CN(C4)C2)C3)cc1`: the T/C under setting [4] was 140 % of control. Under setting [5], the survivor count is recorded as 2 of 6.
On to `CC[OH+]CC[OH+]CC[OH+]C1CCCC2CCC[N-]C21.[Cl][Cu][Cl]` (stereo not given), for which the survivor count is given as 1 of 6 (dose: 25.0 mg/kg/injection, schedule: Q01DX005 (ip), vehicle: Klucel (hydroxypropylcellulose) (HPC)); 0 of 6 under setting [1]; 0 of 6 under setting [2]; 0 of 6 under setting [3].
For the molecule `Cc1cc(Br)c(OC(=O)Nc2cccc(Cl)c2Cl)cc1C`, the survivor count under setting [4] is reported as 6 of 6.
In the case of `CCn1c2ccc(C(=O)CCCN3CCCCC3)cc2c2cc(C(=O)CCCN3CCCCC3)ccc21`, the T/C under setting [6] was 91 [4 of 6 alive] and 98 % of control. Further, the survivor count was 6 of 6 (2×) under setting [6]; 0 of 6 (dose: 100.0 mg/kg/injection, schedule: Q01DX009 (ip), vehicle: saline); 0 of 6 (dose: 200.0 mg/kg/injection, schedule: Q01DX009 (ip), vehicle: saline).
For the molecule `COC(=O)c1cc(-c2ccccc2)[nH]c(=O)c1C#N`, the survivor count (dose: 240.0 mg/kg/injection, schedule: Q01DX005 (ip), vehicle: saline) was 0 of 6.
Regarding `O=C1C(Br)=C(Br)C(=O)C1(Br)Br`, under “dose: 12.5 mg/kg/injection, schedule: Q01DX009 (ip), vehicle: saline with Tween-80”, the T/C was 127 % of control. Also, the survivor count (dose: 25.0 mg/kg/injection, schedule: Q01DX009 (ip), vehicle: saline with Tween-80) is recorded as 3 of 6.
Regarding `CC(=O)Nc1ccc(/C=C2\C(=O)Nc3ccccc32)cc1`, the survivor count runs as follows: under setting [7], 6 of 6; under setting [8], 6 of 6; under setting [9], 5 of 6.
Regarding `O=[N+]([O-])c1cccnc1Sc1ccnc(Sc2ncccc2[N+](=O)[O-])n1`, the survivor count under setting [6] was 6 of 6 and the survivor count under setting [10] is given as 6 of 6.
As for `CCOP(=O)(Nc1cc2c(=O)n(C)cnc2cc1Cl)OCC`, the survivor count (dose: 400.0 mg/kg/injection, schedule: Q04DX003 (ip), vehicle: saline with Tween-80) is reported as 5 of 6.
`Cc1cnc(C)n2c(C)nnc12`: under setting [5], the survivor count was 3 of 6.
In the case of `O=c1ccn(C2OC(CO)C(O)C2O)c(=O)[nH]1` (stereo not given), the T/C is 89, 91, 98, 100 % of control (dose: 64.0 mg/kg/injection, schedule: Q01DX009 (ip), vehicle: saline); 97, 99, 107, 109 % of control (dose: 128.0 mg/kg/injection, schedule: Q01DX009 (ip), vehicle: saline); 89, 97, 101 % of control under setting [11]; 90 (2×), 100, 148 % of control (dose: 512.0 mg/kg/injection, schedule: Q01DX009 (ip), vehicle: saline). Besides, the survivor count under setting [11] is 5 of 6.
As to `Cc1cccc2c1C(=O)N(CC[P+](c1ccccc1)(c1ccccc1)c1ccccc1)C2=O`, the T/C runs as follows: (dose: 1.56 mg/kg/injection, schedule: Q01DX009 (ip), vehicle: water) 131 % of control; (dose: 3.13 mg/kg/injection, schedule: Q01DX009 (ip), vehicle: water) 140 % of control; (dose: 4.5 mg/kg/injection, schedule: Q01DX009 (ip), vehicle: water) 129 % of control; (dose: 6.25 mg/kg/injection, schedule: Q01DX009 (ip), vehicle: water) 137 % of control; (dose: 6.75 mg/kg/injection, schedule: Q01DX009 (ip), vehicle: water) 133 % of control. In addition, the survivor count by setting is: (dose: 12.5 mg/kg/injection, schedule: Q01DX009 (ip), vehicle: water) 6 of 6; (dose: 25.0 mg/kg/injection, schedule: Q01DX009 (ip), vehicle: water) 1 of 6.
Consider `COC1=CC(=O)C(Cl)=C(OC)C1=O`, for which the survivor count (dose: 50.0 mg/kg/injection, schedule: Q01DX009 (ip), vehicle: saline with Tween-80) is 0 of 6; the survivor count under setting [10] is given as 0 of 6; the survivor count under setting [4] was 0 of 6.
For the molecule `NC(CS(=O)(=O)O)C(=O)O` (stereo not given), under setting [12], the survivor count is 6 of 6.
As for `COC(=O)c1nc(N)nc(C(=O)OC)c1C(=O)c1ccc(C)cc1`, the survivor count (dose: 240.0 mg/kg/injection, schedule: Q01DX005 (ip), vehicle: saline with Tween-80) was 0 of 6.
Consider `CC(C)c1cc(C(C)C)c(S(=O)(=O)ON)c(C(C)C)c1`, for which the survivor count under setting [12] is 0 of 6.
For `CCCCNC1CC(OC2CC(O)(C(C)O)Cc3c(O)c4c(c(O)c32)C(=O)c2c(OC)cccc2C4=O)OC(C)C1O` (stereo not given), the T/C is 139 % of control (dose: 2.0 mg/kg/injection, schedule: Q01DX009 (ip), vehicle: water); 130 % of control (dose: 4.0 mg/kg/injection, schedule: Q01DX009 (ip), vehicle: water); 143 % of control (dose: 8.0 mg/kg/injection, schedule: Q01DX009 (ip), vehicle: water); 127 % of control (dose: 16.0 mg/kg/injection, schedule: Q01DX009 (ip), vehicle: water); 127 % of control (dose: 32.0 mg/kg/injection, schedule: Q01DX009 (ip), vehicle: water).
With `CC1=CSCC(=O)N1`, under “dose: 400.0 mg/kg/injection, schedule: Q01DX009 (ip), vehicle: saline with Tween-80”, the survivor count is 3 of 6.
Regarding `Cc1ccc2nc(NC(=S)S)sc2c1`, the survivor count under setting [7] is 6 of 6 and the survivor count under setting [9] is recorded as 6 of 6.
In the case of `OC(Cc1ccnc2ccccc12)C(Cl)(Cl)Cl` (stereo not given), the survivor count (dose: 100.0 mg/kg/injection, schedule: Q04DX003 (ip), vehicle: saline with Tween-80) is 6 of 6.
Take `COc1ccc([C@@H]2c3cc4c(cc3C[C@H]3COC(=O)[C@@H]32)OCO4)cc1OC`: the T/C is, setting by setting: (dose: 50.0 mg/kg/injection, schedule: Q04DX002 (ip), vehicle: Klucel (hydroxypropylcellulose) (HPC)) 126 % of control; (dose: 100.0 mg/kg/injection, schedule: Q04DX002 (ip), vehicle: Klucel (hydroxypropylcellulose) (HPC)) 141 % of control; under setting [13], 144 % of control. The survivor count under setting [13] is 5 of 6 and the survivor count (dose: 400.0 mg/kg/injection, schedule: Q04DX002 (ip), vehicle: Klucel (hydroxypropylcellulose) (HPC)) was 2 of 6.
`CS(=O)(=O)OCCBr`: the survivor count (dose: 200.0 mg/kg/injection, schedule: Q01DX001 (ip), vehicle: saline with Tween-80) is recorded as 3 of 6; the survivor count under setting [14] is recorded as 0 of 6; the survivor count (dose: 400.0 mg/kg/injection, schedule: Q01DX001 (ip), vehicle: saline with Tween-80) is 0 of 6.
For the molecule `OCCNCCNCC[OH2+].OCCNCCNCC[OH2+].[Ni+2].[O-][Cl+3]([O-])([O-])[O-]`, under setting [6], the survivor count was 5 of 6.
With `CCc1nc(N)nc(N)c1-c1ccc(N2CCOCC2)c(N=[N+]=[N-])c1`, the survivor count is, setting by setting: under setting [1], 1 of 6; under setting [2], 0 of 6; under setting [3], 0 of 6.
Regarding `[Cu+2].[NH-]C(=O)NC([NH-])=O.[NH-]C(=O)NC([NH-])=O`, the survivor count by setting is: (dose: 25.0 mg/kg/injection, schedule: Q01DX005 (ip), vehicle: saline with Tween-80) 0 of 5; (dose: 50.0 mg/kg/injection, schedule: Q01DX005 (ip), vehicle: saline with Tween-80) 0 of 5; (dose: 100.0 mg/kg/injection, schedule: Q01DX005 (ip), vehicle: saline with Tween-80) 0 of 5; under setting [14], 0 of 5.
With `C=CCSC(=S)Nc1nc2ccc([N+](=O)[O-])cc2s1`, the survivor count is 6 of 6 under setting [7], 6 of 6 under setting [8] and 0 of 6 under setting [9].
